PubChem BioAssay AID504784, Drosophila RNAi Screening Center, 2011

Test: 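Genome-wide knock-down for genes giving too much or too little stored lipid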 (primary screen)
Cell system: Drosophila Kc167 embryonic cells
Reagent: long dsRNA against Drosophila genes, about 250 ng dsRNA per well
Duration: 4 days
Conditions: cells fed 400 µM oleic acid bound to BSA
Detection: 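Microscope images give a droplet-to-nucleus area ratio, taken as log and converted to a screen-wide B-score; higher values mean greater lipid storage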
Reading the numbers: droplet/nuclear area B-score: higher = more stored lipid (overstorage)
In all, the deposit lists about 17,000 reagents; this is an unselected part of those with a known target gene and a result. 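Each column is one replicate's B-score; the combined score over replicates was not deposited, so single values may mislead.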 The numbers tell different reagents against one gene apart. Names joined by + are all predicted targets of the reagent. Further read-outs or replicates are left out here.

| gene | reagent | droplet/nuclear area B-score, replicate 1 |
| --- | --- | --- |
| Hayan | 1 | -0.191 |
| Hayan | 2 | -1.83 |
| RpS2 (Ribosomal protein S2) | 1 | 1.29 |
| cue (cueball) | 1 | 1.21 |
| CG10307 | 1 | 0.174 |
| Cpsf160 (Cleavage and polyadenylation specificity factor 160) | 1 | -0.247 |
| CG8915 | 1 | 0.427 |
| CG32074 | 1 | 0.491 |
| BobA | 1 | -2.37 |
| Hsepi (Heparan sulfate C5-epimerase) | 1 | -0.789 |
| Polr3H (RNA polymerase III subunit H) | 1 | 0.0225 |
| CG31777 | 1 | 0.345 |
| Sec71 (Secretory 71) | 1 | -2.16 |
| CG18420 | 1 | 2.63 |
| CG30286 | 1 | -0.2 |
| RIOK2 (RIO kinase 2) | 1 | -1.76 |
| zetaCOP (Coat Protein (coatomer) zeta) | 1 | 10.1 |
| Roe1 | 1 | 0.0481 |
| CG8635 | 1 | -0.842 |
| CG10863 | 1 | 2.53 |
| Uch-L5 (Ubiquitin carboxy-terminal hydrolase L5) | 1 | -0.471 |
| CG30385 | 1 | -1.31 |
| Dysb (Dysbindin) | 1 | 0.789 |
| Adar (Adenosine deaminase acting on RNA) | 1 | 0.802 |
| CG18210 (retired record) | 1 | 1.3 |
| CG43996 | 1 | -0.684 |
| CG43996 | 2 | 0.961 |
| CG30344 | 1 | 0.00613 |
| abd-A (abdominal A) | 1 | -0.632 |
| abd-A (abdominal A) | 2 | -2.33 |
| abd-A (abdominal A) | 3 | 0.778 |
| CG14983 | 1 | -1.43 |
| comr (cookie monster) | 1 | -0.837 |
| GNBP2 (Gram-negative bacteria binding protein 2) | 1 | -0.124 |
| Arc2 (Activity-regulated cytoskeleton associated protein 2) | 1 | 1.28 |
| tho2 | 1 | -1.98 |

Next part, starting with the last 6 of the part before.
| gene | reagent | droplet/nuclear area B-score, replicate 1 |
| --- | --- | --- |
| abd-A (abdominal A) | 3 | 0.778 |
| CG14983 | 1 | -1.43 |
| comr (cookie monster) | 1 | -0.837 |
| GNBP2 (Gram-negative bacteria binding protein 2) | 1 | -0.124 |
| Arc2 (Activity-regulated cytoskeleton associated protein 2) | 1 | 1.28 |
| tho2 | 1 | -1.98 |
| Remo (Remoulade) | 1 | 3.19 |
| Fak (Focal adhesion kinase) | 1 | -0.554 |
| Lamp1 | 1 | 0.039 |
| Cpr49Ab (Cuticular protein 49Ab) | 1 | -0.254 |
| CG18853 | 1 | -0.782 |
| cocoon | 1 | -0.973 |
| Khc-73 (Kinesin heavy chain 73) | 1 | -0.176 |
| CG32816 | 1 | -0.449 |
| TAF1B | 1 | 0.305 |
| Sf3b5 (Splicing factor 3b subunit 5) | 1 | -5.57 |
| Osi16 (Osiris 16) | 1 | -0.503 |
| Osi16 (Osiris 16) | 2 | -0.864 |
| Or45a (Odorant receptor 45a) | 1 | -0.25 |
| CG7255 | 1 | 0.585 |
| SCCRO3 (Squamous cell carcinoma-related oncogene 3) | 1 | -2.89 |
| pr (purple) | 1 | -1 |
| E(spl)m8-HLH (Enhancer of split m8, helix-loop-helix) | 1 | 1.03 |
| CG7492 | 1 | 0.499 |
| RhoGAP54D (Rho GTPase activating protein at 54D) | 1 | -0.104 |
| Dh31 (Diuretic hormone 31) | 1 | -2.63 |
| CG30287 | 1 | 2.15 |
| Ugt316A1 (UDP-glycosyltransferase family 316 member A1) | 1 | 0.669 |
| RpS24 (Ribosomal protein S24) | 1 | 3.3 |
| Jhedup (Juvenile hormone esterase duplication) | 1 | 1.63 |
| CG15125 | 1 | -0.0954 |
| Ugt36E1 (UDP-glycosyltransferase family 36 member E1) | 1 | -1.86 |
| CG4570 | 1 | -0.0184 |
| mkg-p + Tpt | 1 | -0.267 |
| mtTFB2 (mitochondrial transcription factor B2) | 1 | 1.5 |
| Jon25Biii (Jonah 25Biii) | 1 | 0.423 |
| CG10710 | 1 | -0.129 |
| l(3)73Ah (lethal (3) 73Ah) | 1 | 0.892 |
| RpL3 (Ribosomal protein L3) | 1 | 2.35 |
| CG7565 | 1 | 1.13 |
| CG3528 | 1 | 1.31 |
| f-cup (flyers-cup) | 1 | 7.94 |
| dsx-c73A (doublesex cognate 73A) | 1 | -1.38 |
| dsx-c73A (doublesex cognate 73A) | 2 | -0.478 |
| dsx-c73A (doublesex cognate 73A) | 3 | 0.87 |
| Tm1 (Tropomyosin 1) | 1 | -0.561 |
| Tm1 (Tropomyosin 1) | 2 | -1.07 |
| Tm1 (Tropomyosin 1) | 3 | 1.41 |
| HemK2 + Snapin | 1 | -1.13 |
| HemK2 + Snapin | 2 | -1.11 |
| Rip11 (Rab11 interacting protein) | 1 | -0.448 |
| wek (weckle) | 1 | 1.52 |
| CG14079 | 1 | 0.162 |
